The list does not hold the whole screen: it is rich in T/C values a quarter to a half above the control, in often repeated tests (any T/C) and in doses without a T/C. Further doses and runs are listed elsewhere. T/C is the treated group as % of the vehicle group. Some entries give survivors of the animals treated and no T/C: the source holds a T/C of zero for them, seemingly a mark for toxic or unscored doses. Some survivor counts are full or nearly so, which does not show that the dose was tolerated: survival well below the control is almost never listed, so the zero probably covers shortened survival too. Counts of survivors are from the toxicity check (mostly the fifth day) where no day follows; animals may have died later. Schedule codes are those of the source, read here as Q, the interval in days (D) or hours (H), X, the number of doses. Some entries were tested several times; the results are listed from low to high. Additions like (4×) give the number of equal values in this list. For survival time, the PubChem record calls one and a half times the control and up active, and a quarter to a half above the control has no call in these data; cut-offs in other NCI protocols can differ. Some T/C values carry the count of animals alive at the toxicity check (mostly the fifth day); without a count, all were alive then.

The test system of this assay is CD2F1 mice, L1210 leukemia ip, survival T/C. Nature of the assay: NCI In Vivo Anticancer Drug Screen. Data for tumor model L1210 Leukemia (intraperitoneal) in CD2F1 (CDF1) mice. The following applies: higher T/C = longer survival. The method in brief:
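Tumor-bearing mice (transplanted tumor) were split into treated and vehicle control groups, and the measured endpoint of each treated group was divided by that of its vehicle controls.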

The mark [1] stands for this setting: T/C endpoint: median survival time, dose: 150.0 mg/kg/injection, schedule: Q01DX009 (ip), vehicle: saline with Tween-80.
Where [2] appears, read: T/C endpoint: median survival time, dose: 200.0 mg/kg/injection, schedule: Q01DX009 (ip), vehicle: saline with Tween-80.

For `O=C(Nc1ccccc1)c1c(O)[nH]c(=S)[nH]c1=O`, the T/C by setting is: (T/C endpoint: median survival time, dose: 6.2 mg/kg/injection, schedule: Q01DX009 (ip), vehicle: other) 127 % of control; (T/C endpoint: median survival time, dose: 12.5 mg/kg/injection, schedule: Q01DX009 (ip), vehicle: other) 133 % of control; (T/C endpoint: median survival time, dose: 12.5 mg/kg/injection, schedule: Q01DX009 (ip), vehicle: saline with Tween-80, evaluated on day 30) 102, 106, 110 (2×), 111 (2×), 112 (2×), 113 (2×), 114, 116, 117 (2×), 118, 125, 131 % of control; (T/C endpoint: median survival time, dose: 12.5 mg/kg/injection, schedule: Q01DX009 (ip), vehicle: saline with Tween-80, evaluated on day 35) 115 % of control; (T/C endpoint: median survival time, dose: 12.5 mg/kg/injection, schedule: Q01DX009 (ip), vehicle: saline with Tween-80, evaluated on day 60) 127 % of control; (T/C endpoint: median survival time, dose: 25.0 mg/kg/injection, schedule: Q01DX009 (ip), vehicle: saline with Tween-80, evaluated on day 30) 107, 109, 113, 116 (2×), 118 [5 of 6 alive], 119, 120 (5×), 121, 122 (3×), 124, 125 (2×), 126, 127 (2×), 128, 131, 132, 134 (2×), 144 % of control. Moreover, the T/C by setting is: (T/C endpoint: median survival time, dose: 25.0 mg/kg/injection, schedule: Q01DX009 (ip), vehicle: saline with Tween-80, evaluated on day 35) 132 % of control; (T/C endpoint: median survival time, dose: 25.0 mg/kg/injection, schedule: Q01DX009 (ip), vehicle: saline with Tween-80, evaluated on day 60) 135 % of control [5 of 6 alive]; (T/C endpoint: median survival time, dose: 30.0 mg/kg/injection, schedule: Q01DX009 (ip), vehicle: saline with Tween-80) 139 % of control; (T/C endpoint: median survival time, dose: 50.0 mg/kg/injection, schedule: Q01DX009 (ip), vehicle: saline with Tween-80, evaluated on day 30) 123, 141, 142 (3×), 144 (3×), 145, 147 [5 of 6 alive], 151, 152, 158, 160, 162, 164, 170, 174, 175, 177, 178, 179, 182, 183, 185, 187, 216, 290 % of control; (T/C endpoint: median survival time, dose: 50.0 mg/kg/injection, schedule: Q01DX009 (ip), vehicle: saline with Tween-80, evaluated on day 35) 209 % of control; (T/C endpoint: median survival time, dose: 50.0 mg/kg/injection, schedule: Q01DX009 (ip), vehicle: saline with Tween-80, evaluated on day 60) 162, 175, 185 % of control. Besides, the T/C is, setting by setting: (T/C endpoint: median survival time, dose: 75.0 mg/kg/injection, schedule: Q01DX009 (ip), vehicle: saline with Tween-80) 197, 210, 212, 235, 349 % of control; (T/C endpoint: median survival time, dose: 100.0 mg/kg/injection, schedule: Q01DX009 (ip), vehicle: saline with Tween-80, evaluated on day 30) 91, 133, 166, 166 [4 of 6 alive], 177, 186, 189, 190, 197 (2×), 202 [5 of 6 alive], 214, 217 [5 of 6 alive], 223, 227, 228, 231, 285 (2×), 322 [5 of 6 alive], 326 [5 of 6 alive], 329 (2×), 329 [5 of 6 alive], 337, 340, 344 [5 of 6 alive], 375 % of control; (T/C endpoint: median survival time, dose: 100.0 mg/kg/injection, schedule: Q01DX009 (ip), vehicle: saline with Tween-80, evaluated on day 35) 139 % of control [5 of 6 alive]; (T/C endpoint: median survival time, dose: 100.0 mg/kg/injection, schedule: Q01DX009 (ip), vehicle: saline with Tween-80, evaluated on day 45) 256 % of control; (T/C endpoint: median survival time, dose: 100.0 mg/kg/injection, schedule: Q01DX009 (ip), vehicle: saline with Tween-80, evaluated on day 60) 202, 219, 244 (2×), 250, 370, 722 % of control; (T/C endpoint: median survival time, dose: 125.0 mg/kg/injection, schedule: Q01DX009 (ip), vehicle: saline with Tween-80) 246 [8 of 9 alive], 268, 317, 318, 625 % of control. Further, the T/C is, setting by setting: under setting [1], 108 [8 of 10 alive], 122, 219, 625, 740 % of control; under setting [2], 94 [5 of 6 alive], 98, 104 [5 of 6 alive], 238 [4 of 6 alive], 261, 266 [4 of 6 alive], 292 [5 of 6 alive], 302, 313 [4 of 6 alive], 315, 326, 326 [5 of 6 alive], 329 [5 of 6 alive], 340 [5 of 6 alive], 344, 352 % of control. Moreover, the survivor count reads like this: (T/C endpoint: median survival time, dose: 50.0 mg/kg/injection, schedule: Q01DX005 (iv), vehicle: other) 2 of 6; (T/C endpoint: median survival time, dose: 100.0 mg/kg/injection, schedule: Q01DX005 (iv), vehicle: other) 0 of 6; (T/C endpoint: median survival time, dose: 100.0 mg/kg/injection, schedule: Q01DX009 (ip), vehicle: other) 0 of 6; (T/C endpoint: median survival time, dose: 100.0 mg/kg/injection, schedule: Q01DX009 (ip), vehicle: water) 0 of 4; under setting [1], 4 of 6; under setting [2], 0 of 6 (2×), 1 of 6 (2×), 2 of 6, 2 of 5, 3 of 6, 4 of 6. The survivor count (T/C endpoint: median survival time, dose: 200.0 mg/kg/injection, schedule: Q01DX009 (ip), vehicle: water) is recorded as 0 of 4.
Regarding `Nc1ncnc2nc(-c3ccc(OCCCOc4ccccc4)c(Cl)c3)[nH]c12`, the survivor count is 6 of 6 (T/C endpoint: mean survival time, dose: 100.0 mg/kg/injection, schedule: Q01DX001 (ip), vehicle: saline with Tween-80); 6 of 6 (T/C endpoint: mean survival time, dose: 200.0 mg/kg/injection, schedule: Q01DX001 (ip), vehicle: saline with Tween-80); 6 of 6 (T/C endpoint: mean survival time, dose: 400.0 mg/kg/injection, schedule: Q01DX001 (ip), vehicle: saline with Tween-80).
`Cc1c(N=NN(C)C)cc[n+]([O-])c1C`: the T/C (T/C endpoint: mean survival time, dose: 12.5 mg/kg/injection, schedule: Q01DX009 (ip), vehicle: water) was 125 % of control; the T/C (T/C endpoint: mean survival time, dose: 16.5 mg/kg/injection, schedule: Q01DX009 (ip), vehicle: water) is 126 % of control; the T/C (T/C endpoint: mean survival time, dose: 25.0 mg/kg/injection, schedule: Q01DX009 (ip), vehicle: water) is 142 % of control; the T/C (T/C endpoint: mean survival time, dose: 50.0 mg/kg/injection, schedule: Q01DX009 (ip), vehicle: water) is 137 % of control. For the same molecule, the survivor count was 6 of 6 (T/C endpoint: mean survival time, dose: 100.0 mg/kg/injection, schedule: Q01DX009 (ip), vehicle: water) and 1 of 6 (T/C endpoint: mean survival time, dose: 200.0 mg/kg/injection, schedule: Q01DX009 (ip), vehicle: water).
With `CC1CC[N+](C)(CC(=O)c2ccc(-c3ccc(C(=O)C[N+]4(C)CCC(C)CC4)cc3)cc2)CC1` (stereo not given), the survivor count is, setting by setting: (T/C endpoint: mean survival time, dose: 0.16 mg/kg/injection, schedule: Q04DX003 (ip), vehicle: Klucel (hydroxypropylcellulose) (HPC)) 1 of 6; (T/C endpoint: mean survival time, dose: 0.31 mg/kg/injection, schedule: Q04DX003 (ip), vehicle: Klucel (hydroxypropylcellulose) (HPC)) 0 of 6; (T/C endpoint: mean survival time, dose: 0.62 mg/kg/injection, schedule: Q04DX003 (ip), vehicle: Klucel (hydroxypropylcellulose) (HPC)) 0 of 6; (T/C endpoint: mean survival time, dose: 1.25 mg/kg/injection, schedule: Q04DX003 (ip), vehicle: Klucel (hydroxypropylcellulose) (HPC)) 0 of 6.
With `CC(C)COC(=O)c1ccc(NC(=O)Nc2ccccc2Cl)cc1`, the survivor count was 6 of 6 (T/C endpoint: mean survival time, dose: 200.0 mg/kg/injection, schedule: Q04DX003 (ip), vehicle: saline with Tween-80) and 2 of 6 (T/C endpoint: mean survival time, dose: 400.0 mg/kg/injection, schedule: Q01DX009 (ip), vehicle: saline with Tween-80).
On to `C[N+]12CCC34C5=CC(=O)C(=O)C=C5[N+]5(C)C(=O)CC6OCC=C(C1)C(CC32)C6C45` (stereo not given), for which the survivor count is on record as 3 of 6 (T/C endpoint: mean survival time, dose: 150.0 mg/kg/injection, schedule: Q01DX001 (ip), vehicle: saline) and 2 of 6 (T/C endpoint: mean survival time, dose: 300.0 mg/kg/injection, schedule: Q01DX001 (ip), vehicle: saline).
For `CC(C)S(=O)(=O)/C=C(\I)c1ccccc1`, the survivor count (T/C endpoint: mean survival time, dose: 400.0 mg/kg/injection, schedule: Q04DX003 (ip), vehicle: saline) was 2 of 6.
Consider `O=C(Nc1cccnc1)c1ccc([N+](=O)[O-])s1`, for which the survivor count is, setting by setting: (T/C endpoint: mean survival time, dose: 400.0 mg/kg/injection, schedule: Q01DX005 (ip), vehicle: saline + alcohol) 4 of 6; (T/C endpoint: mean survival time, dose: 800.0 mg/kg/injection, schedule: Q01DX005 (ip), vehicle: saline + alcohol) 5 of 6; (T/C endpoint: mean survival time, dose: 800.0 mg/kg/injection, schedule: Q01DX005 (ip), vehicle: saline) 3 of 6; (T/C endpoint: median survival time, dose: 400.0 mg/kg/injection, schedule: Q01DX005 (ip), vehicle: saline) 2 of 6. Besides, the T/C by setting is: (T/C endpoint: mean survival time, dose: 400.0 mg/kg/injection, schedule: Q01DX005 (ip), vehicle: saline) 136 % of control; (T/C endpoint: median survival time, dose: 100.0 mg/kg/injection, schedule: Q01DX005 (ip), vehicle: saline) 128 and 128 % of control [5 of 6 alive]; (T/C endpoint: median survival time, dose: 166.67 mg/kg/injection, schedule: Q01DX005 (ip), vehicle: saline) 128 % of control; (T/C endpoint: median survival time, dose: 200.0 mg/kg/injection, schedule: Q01DX005 (ip), vehicle: saline) 139 % of control [4 of 6 alive]; (T/C endpoint: median survival time, dose: 277.78 mg/kg/injection, schedule: Q01DX005 (ip), vehicle: saline) 144 % of control.
For `Nc1nc2nc3c(nc2c(=O)[nH]1)CN(c1ccc(C(=O)O)cc1)C3=O`, the survivor count (T/C endpoint: mean survival time, dose: 400.0 mg/kg/injection, schedule: Q04DX003 (ip), vehicle: saline with Tween-80) was 2 of 6.

These data come from PubChem BioAssay AID256 (DTP/NCI, 2004).
